# Measurements: US6960678B2, “Silanol enzyme inhibitors” (The Research Foundation of State University of New York, priority 1996, dated 2005)
# At least one compound was matched to its structure with a doubt left.
# Experiment: storage stability as solid or in solution (polymerization / oligomerization)
# Format: physicochemical
# Details: one week at room temperature
# Excerpt: The compounds are stable and can be stored for weeks or longer at room temperature without noticeable decomposition in either solid or solution form. In addition, there is no intrinsic toxicity associated with silicon (Friedberg, K. D. and Schiller, E., Handbook on Toxicity of Inorganic Compounds, Eds. Seiler H, G., and Sigel, H.; Marcel Dekker, New York, 1988, pp. 595-617).
# The C2 symmetry of the HIV protease has led to the development of C2 symmetric inhibitors such as Merck's L-700, 417. The silanediol analog 9a was prepared from the commercially available dichlorodiphenylsilane. Treatment of this dichlorosilane with the enantiomerically pure lithium reagent 53b led to the symmetric diether 54 in 75% yield. Cleavage of the ethers and oxidation to the diacid was followed by preparation of the diamide 56. For this study, N-benzyl amides were used as the simplest first analog. Hydrolysis of diphenylsilane 56 to the silanediol 9a was effected by treatment with triflic acid in dichloromethane at 0° C. for ten to 30 minutes. Under these conditions, both phenyl groups on silicon are lost very rapidly. We believe that the intermediate formed is not a di-triflate, but is the spirocyclic intermediate 57. Addition of the triflic acid-derived intermediate to an aqueous phase (either acidic, buffered, or basic) serves to finish hydrolysis to the diol 9a. […]
smiles,measurement,setting,value
"O=C(NCc1ccccc1)[C@H](Cc1ccccc1)C[Si](O)(O)C[C@@H](Cc1ccccc1)C(=O)NCc1ccccc1 [Compound 9a, Di-benzyl 2-(S)-6-(S)-dibenzyl-4,4-dihydroxy-4-sila-heptanediamide]",fate in acetone solution,acetone,mixture of dimer 60 and tetramer 61 in a ratio of 2:1
same,fate in benzene solution,benzene,cyclic tetramer 61 quantitatively
